Assay [1] concerns the target EphA2 overexpressed on 293T cells (UniProt P29317). Nature of the assay: flow cytometry on 293T cells overexpressing EphA1-A8 (FIG. 6A, told again).
Assay [2] shares this target. Nature of the assay: flow cytometry on 293T cells overexpressing EphA1-A8.

Chains of the proteins cited; added tags and fusions are not shown. Residues count along the entry.
UniProt P29317, residues 24-976: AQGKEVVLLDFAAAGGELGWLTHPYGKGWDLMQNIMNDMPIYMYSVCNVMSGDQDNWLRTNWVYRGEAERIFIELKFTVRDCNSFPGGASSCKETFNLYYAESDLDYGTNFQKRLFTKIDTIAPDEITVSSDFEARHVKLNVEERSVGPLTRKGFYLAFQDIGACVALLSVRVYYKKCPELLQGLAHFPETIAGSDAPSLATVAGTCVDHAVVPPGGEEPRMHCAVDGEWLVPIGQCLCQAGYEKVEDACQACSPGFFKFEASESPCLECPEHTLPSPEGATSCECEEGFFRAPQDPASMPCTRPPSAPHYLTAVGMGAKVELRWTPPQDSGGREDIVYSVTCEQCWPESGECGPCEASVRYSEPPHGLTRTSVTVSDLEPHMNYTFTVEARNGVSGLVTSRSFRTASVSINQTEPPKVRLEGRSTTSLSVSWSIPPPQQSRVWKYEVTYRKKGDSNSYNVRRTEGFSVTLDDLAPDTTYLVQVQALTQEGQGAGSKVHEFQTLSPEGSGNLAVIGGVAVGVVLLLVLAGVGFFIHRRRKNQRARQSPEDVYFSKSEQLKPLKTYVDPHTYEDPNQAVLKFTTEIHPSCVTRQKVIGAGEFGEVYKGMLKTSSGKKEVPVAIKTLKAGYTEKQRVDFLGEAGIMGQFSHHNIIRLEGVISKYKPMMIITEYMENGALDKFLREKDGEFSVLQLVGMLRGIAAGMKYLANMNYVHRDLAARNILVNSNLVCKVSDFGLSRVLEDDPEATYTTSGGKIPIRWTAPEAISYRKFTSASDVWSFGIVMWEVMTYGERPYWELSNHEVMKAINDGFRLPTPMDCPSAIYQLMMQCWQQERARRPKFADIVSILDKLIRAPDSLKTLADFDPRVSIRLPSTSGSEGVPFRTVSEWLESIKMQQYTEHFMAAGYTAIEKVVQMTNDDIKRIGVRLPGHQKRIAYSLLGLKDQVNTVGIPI

No constants are given. Whether binding was seen depends on the method and setting. Some binding calls cover weakened binding; strength is not graded here.

This is an account of results in patent US20250340655A1, “EPHA2-TARGETING ANTIBODIES AND THEIR APPLICATIONS IN CANCER TREATMENT” (TAIPEI MEDICAL UNIVERSITY, priority 2022, published 2025).

B1: Humanized scFv hSD5 (scFv)
scFv: LTQPPSVSVSPGQTVRITCSGSSGSYGWYQQKSPGQAPVTLIYDNDKRPSGIPERFSGSSSGSTSTLTISGVQAEDEADYYCGSADSSTYVGMFGGGTKLTVLGQSSRSSQVQLVESGGGLVQPGGSLRLSCAASGFTFSDYGMGWVRQAPGKGLEWVAGISAAGSFTPYGAAVKGRFTISRDNSKNTVYLQMNSLRAEDTAVYYCARIPSGYRAGEIYTWGQGTLVTVSS
notes: also called hSD5 scFv; Humanized scFv hSDS
Regarding B1, the binding entry in assay [1] and in assay [2] was “binds” throughout.
